PubChem BioAssay AID1259314, Drosophila RNAi Screening Center, 2017
Shown is one part, drawn at random, of about 3,100 deposited reagents. 289 of all reagents (9.3%) count as active. 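Active includes both higher and lower ATP than plate average; check the z-score sign for direction.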 Not given: the amount of reagent.

- Aim: 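Transmembrane protein genes affecting ATP after manganese overload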 (primary screen)
- System: Drosophila S2R+ cells
- Reagents: long dsRNA against Drosophila genes
- Time to read-out: 5 days (4 days knock-down, then 1 day metal exposure)
- Conditions: manganese chloride added to 15 mM for 24 hours
- Measured: 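Luciferase ATP signal used as a proxy for viable cell number, reported as one averaged z-score per dsRNA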
- Direction: mean ATP z-score: higher = more ATP than the plate average, more viable cells under manganese
- Active means: 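a mean ATP z-score past 1.5 in either direction is called active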
- Meaning of the calls: active = strong ATP change, up or down; inactive = no strong ATP change

{"gene": "AQP (aquaporin)", "dsRNA": "DRSC06122", "mean ATP z-score": -0.452, "Outcome": "inactive"}
{"gene": "AQP (aquaporin)", "dsRNA": "DRSC39533", "mean ATP z-score": -0.485, "Outcome": "inactive"}
{"gene": "Tsp42Er (Tetraspanin 42Er)", "dsRNA": "DRSC06183", "mean ATP z-score": 2, "Outcome": "active"}
{"gene": "mtt (mangetout)", "dsRNA": "DRSC05107", "mean ATP z-score": -0.364, "Outcome": "inactive"}
{"gene": "mtt (mangetout)", "dsRNA": "DRSC06753", "mean ATP z-score": 0.102, "Outcome": "inactive"}
{"gene": "mtt (mangetout)", "dsRNA": "DRSC07235", "mean ATP z-score": -0.437, "Outcome": "inactive"}

Reagents listed so far with an active call, once more:
{"gene": "Tsp42Er (Tetraspanin 42Er)", "dsRNA": "DRSC06183", "mean ATP z-score": 2, "Outcome": "active"}

Further entries follow:
{"gene": "ppk26 (pickpocket 26)", "dsRNA": "DRSC10991", "mean ATP z-score": -0.712, "Outcome": "inactive"}
{"gene": "ppk26 (pickpocket 26)", "dsRNA": "DRSC25876", "mean ATP z-score": -0.494, "Outcome": "inactive"}
{"gene": "CG8389", "dsRNA": "DRSC22855", "mean ATP z-score": 0.166, "Outcome": "inactive"}
{"gene": "CG8389", "dsRNA": "DRSC28233", "mean ATP z-score": 0.965, "Outcome": "inactive"}
{"gene": "Sln (Silnoon)", "dsRNA": "DRSC07133", "mean ATP z-score": -0.765, "Outcome": "inactive"}
{"gene": "Sln (Silnoon)", "dsRNA": "DRSC24171", "mean ATP z-score": -0.187, "Outcome": "inactive"}
{"gene": "Gr93d (Gustatory receptor 93d)", "dsRNA": "DRSC21941", "mean ATP z-score": 0.149, "Outcome": "inactive"}
{"gene": "Tret1-2 (Trehalose transporter 1-2)", "dsRNA": "DRSC07117", "mean ATP z-score": 0.953, "Outcome": "inactive"}
{"gene": "Tret1-2 (Trehalose transporter 1-2)", "dsRNA": "DRSC28985", "mean ATP z-score": 0.297, "Outcome": "inactive"}
{"gene": "Gr47b (Gustatory receptor 47b)", "dsRNA": "DRSC05275", "mean ATP z-score": 0.107, "Outcome": "inactive"}
{"gene": "Gr47b (Gustatory receptor 47b)", "dsRNA": "DRSC39674", "mean ATP z-score": -0.204, "Outcome": "inactive"}
{"gene": "CG7881", "dsRNA": "DRSC04898", "mean ATP z-score": -0.269, "Outcome": "inactive"}
{"gene": "CG7881", "dsRNA": "DRSC39816", "mean ATP z-score": -0.495, "Outcome": "inactive"}
